# In PubChem BioAssay AID2685 (National Center for Advancing Translational Sciences (NCATS), 2010):
# This is one part of the list. Shown are side measurements of this screen, not its main read-out; they come without a call. Most of these compounds were active or inconclusive in the main read-out, so they are no random draw. The note in brackets gives the kind of curve behind each potency; many fits are weak.
# Assay: qHTS Assay for Lipid Storage Modulators in Drosophila S3 Cells;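 on cell number change: cells counted by Cell Tracker Red CMTPX staining in the red channel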
# Conditions: BODIPY lipid droplet fluorescence, 18-24 h; for cell number change: measured here: cell count max response, cells fed with added oleic acid
# Procedure, shortened: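 Drosophila S3 cells loaded with oleic acid (400 uM, as added) and compounds at several concentrations; lipid droplets imaged by 488-nm laser-scanning cytometry, 500–530 nm intensity and object ratio to cell channel. Percent activity normalized to 20 uM Triacsin C.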
# [1] = measured here: cell number channel AC50, cells fed with added oleic acid
# [2] = measured here: lipid fluorescence (Fed channel) AC50, cells fed with added oleic acid
SMILES,cell number change [%],AC50 [1],AC50 [2]
CC(C)(C)c1ccc(C(=O)C2CCCN(C3CCC3)C2)cc1 (stereo not given),4.06,"2.06 µM [falling, partial curve]","0.146 µM [falling, full curve, poor fit]"
CCC(=NCc1ccc(F)cc1)c1c(O)n(C)c(=O)n(C)c1=O,-25.8,–,–
COCCNC(=O)Cn1cc(/C=C2\C(=O)NC(=O)N(c3ccccc3F)C2=O)c2ccccc21,65.3,"9.2 µM [rising, partial curve]",–
COc1ccc(OCC(=O)N2CCN(Cc3nc4cc([N+](=O)[O-])ccc4n3C)CC2)cc1,41.3,"9.2 µM [rising, partial curve]","0.731 µM [rising, single point]"
Cc1cc(OCC(=O)Nc2c(C)n(C)n(-c3ccccc3)c2=O)c2c3c(c(=O)oc2c1)CCC3,15.8,"0.231 µM [rising, full curve]","0.291 µM [rising, full curve]"
C1CNC2NCCNC2N1 (stereo not given),-0.799,–,–
CC(C)CN1CCN(Cc2ccc(C(F)(F)F)cc2)CC1CCO (stereo not given),33.2,"29.1 µM [rising, single point]",–
Cc1cc(NC(=O)CCl)nn1C,-24.2,–,"20.6 µM [falling, single point]"
CC1CC2(O)c3no[n+]([O-])c3CCC2N1O (stereo not given),0.703,–,"29.1 µM [falling, single point]"
Cn1cc(CCC(=O)N2CCC3(CC2)OCCO3)c2ccccc21,-8.6,"0.731 µM [falling, full curve, poor fit]","1.46 µM [falling, partial curve, poor fit]"
Cc1ccc(-n2c(O)c(/C=N/Nc3ccccc3)c(=O)[nH]c2=O)cc1C,4.1,"0.58 µM [falling, full curve]",–
CCOC(=O)C1=C(NC(=S)NC(=O)c2ccccc2)c2ccccc2CC12CCCC2,-8.82,"0.231 µM [falling, full curve]","0.291 µM [falling, partial curve]"
CC1(C)OC1COc1c2occc2cc2ccc(=O)oc12 (stereo not given),18.7,–,"0.326 µM [rising, full curve]"
Cc1cccc(-n2c(O)c(C=Nc3ccc(S(N)(=O)=O)cc3)c(=O)[nH]c2=O)c1,–,–,"16.4 µM [falling, partial curve, poor fit]"
CC(C)(C#CCCCCC#CC(C)(C)[N+](C)(C)C)[N+](C)(C)C,-10.5,–,"32.6 µM [falling, single point]"
CNP(=S)(NC)OCCOc1ccc(OC)cc1,-28.6,–,–
COc1cccc(N2CCN(Cc3ccc(Cl)cc3)CC2)c1,-39.1,"3.26 µM [falling, partial curve, poor fit]","9.2 µM [falling, partial curve, poor fit]"
c1ccc2c(CCNC3=NCCC3)c[nH]c2c1,-14.2,–,"0.0291 µM [rising, full curve, poor fit]"
CCCC(C)C1(CC)C(=O)NC(=Nc2ccc(OC)cc2)NC1=O (stereo not given),0.565,–,"0.651 µM [falling, full curve, poor fit]"
C/C(=N\Nc1ccccc1)c1c(O)n(C)c(=O)n(C)c1=O,30.2,"32.6 µM [rising, partial curve, poor fit]","0.0411 µM [rising, full curve]"

# Ordered by length of the SMILES (high to low): some entries from above.
SMILES,cell number change [%],AC50 [1],AC50 [2]
CCC(=NCc1ccc(F)cc1)c1c(O)n(C)c(=O)n(C)c1=O,-25.8,–,–
C/C(=N\Nc1ccccc1)c1c(O)n(C)c(=O)n(C)c1=O,30.2,"32.6 µM [rising, partial curve, poor fit]","0.0411 µM [rising, full curve]"
CC(C)(C)c1ccc(C(=O)C2CCCN(C3CCC3)C2)cc1 (stereo not given),4.06,"2.06 µM [falling, partial curve]","0.146 µM [falling, full curve, poor fit]"
c1ccc2c(CCNC3=NCCC3)c[nH]c2c1,-14.2,–,"0.0291 µM [rising, full curve, poor fit]"

# Going on with the list.

SMILES,cell number change [%],AC50 [1],AC50 [2]
Clc1ccc(C(Cl)(Cl)Cl)c(Cl)c1,17.7,–,"29.1 µM [rising, single point]"
CCCCn1c(=O)c(C(=O)NCc2ccc(Cl)cc2)c(O)c2ccccc21,5.87,–,"25.9 µM [falling, single point]"
Cc1cc([N+](=O)[O-])c2ccccc2[n+]1[O-],-45.8,"0.731 µM [falling, partial curve, poor fit]","0.651 µM [falling, full curve]"
O=C(CCC(=O)N1CC2C[C@@H](C1)Cn1c2cccc1=O)NCCc1ccccc1F,33.7,–,"29.1 µM [rising, single point]"
O=C1NC(=O)N(c2ccc(Cl)cc2)C(=O)/C1=C\c1ccc(Sc2nc3ccccc3[nH]2)o1,-94.3,"29.1 µM [falling, single point]","4.61 µM [falling, single point]"
CCCSP1(=S)NCCCO1 (stereo not given),-0.814,–,"23.1 µM [rising, single point]"
CCOC(=O)N1CCN(C(C)C(=O)c2c[nH]c3ccccc23)CC1 (stereo not given),-23,–,"2.59 µM [falling, partial curve, poor fit]"
CCOC(=O)C1(CCOc2ccccc2)CCN(Cc2ccc(C)s2)CC1,-49.4,"23.1 µM [falling, single point]","25.9 µM [falling, single point]"
CNC(=O)Oc1cccc(-c2cn3cc(Cl)ccc3n2)c1,-13.6,–,"5.8 µM [rising, full curve]"
Nc1c(C(=O)NCC2CCCO2)c2nc3ccccc3nc2n1Cc1ccco1 (stereo not given),-28.2,–,"16.4 µM [falling, single point]"
COc1cccc(CCNCc2c(F)cccc2F)c1,-13.1,–,"6.51 µM [falling, partial curve]"
NC(=S)/N=C/c1c(O)[nH]c(=O)[nH]c1=O,-38.9,"0.0326 µM [rising, full curve, poor fit]","5.17 µM [falling, single point]"
Cc1ccc(C(=O)C2CN3CCC2CC3)cc1 (stereo not given),-207,"20.6 µM [falling, partial curve]","0.731 µM [falling, single point]"
CC1CN=C(Nc2ccc(F)cc2)S1 (stereo not given),84.6,"4.11 µM [rising, full curve]","4.61 µM [rising, full curve]"
CC1C(C)N1CC(O)Cn1ccnc1[N+](=O)[O-] (stereo not given),7.55,–,"0.461 µM [falling, full curve, poor fit]"
O=C(NC1CC1)C1CSC(c2cccnc2)=N1 (stereo not given),25.1,–,–
c1coc(CNCCc2c[nH]c3ccccc23)c1,5.77,–,"5.8 µM [falling, single point]"
O=C(COc1ccc2ccc(=O)oc2c1)N1C[C@H]2C[C@@H](C1)c1cccc(=O)n1C2,-11.3,–,"20.6 µM [falling, single point]"
Cc1cc(OCC(=O)NC(Cc2ccc(Cl)cc2)C(=O)O)c2c3c(c(=O)oc2c1)CCCC3 (stereo not given),7.49,–,–
Cc1ccc(N2C(=O)CC(=O)NC2=O)c(C)c1,-4.18,–,–

SMILES,cell number change [%],AC50 [1],AC50 [2]
CN1CCN(C(=O)COc2ccc(S(=O)(=O)NCc3ccccc3)cc2Cl)CC1,36.7,"10.3 µM [rising, single point]",–
CCN(CC)C(=O)c1ccc(N(Cc2ccccc2)S(C)(=O)=O)cc1,-0.702,–,–
CC1CCCCC1NC(=O)CNC(=S)N1CC2CC(C1)c1cccc(=O)n1C2 (stereo not given),-4.78,–,–
O=C(CN1CCCCC1)c1ccc(F)cc1,-31,"0.58 µM [falling, full curve, poor fit]","0.58 µM [falling, full curve, poor fit]"
CCCC(=O)NC(Oc1ccc(Cl)cc1Cl)C(Cl)(Cl)Cl (stereo not given),22.9,–,–
c1ccc(CCN2CCC(N3CCN(c4ccccc4)CC3)CC2)cc1,-11.7,–,–
CC[C@@]1(O)C(=O)OCc2c1cc1n(c2=O)Cc2cc3ccccc3nc2-1,-9.51,–,–
COC(=O)C1=C(c2ccc(-c3ccccc3)c(F)c2)C[C@@H]2CC[C@H]1N2C(=O)NCCO,19.3,"0.651 µM [falling, full curve]","0.651 µM [rising, single point]"
CC1CCCC(NC(=O)COC(=O)Cc2ccccc2)C1C (stereo not given),-49.2,"13 µM [falling, partial curve]",–
Cc1ccc(S(=O)(=O)N(C)CCCC(=O)N2CCN(c3ccccn3)CC2)cc1,–,"0.411 µM [rising, partial curve]",–
CN(C)[C@@H]1C(=O)C(C(N)=O)=C(O)[C@@]2(O)C(=O)C3=C(O)c4c(O)ccc(Cl)c4[C@@](C)(O)[C@H]3C[C@@H]12,0.872,–,"25.9 µM [falling, single point]"
CCCNc1nc(OC)nc(N2CC3CC(C2)c2cccc(=O)n2C3)n1 (stereo not given),-31.8,"0.206 µM [falling, full curve, poor fit]",–
O=C1NC(=O)N(c2ccccc2F)C(=O)/C1=C/c1cn(CC(=O)N2CCOCC2)c2ccccc12,2.63,–,–
CCCOP(=O)(c1ccc(N(C)C)cc1)C(O)c1cccnc1 (stereo not given),–,"5.8 µM [rising, full curve]",–
COC(=O)C1=C(c2cccc(OCc3ccccc3)c2)C[C@@H]2CC[C@H]1N2C(=O)NCc1cccc(C(F)(F)F)c1,-33,"4.11 µM [falling, single point]","4.61 µM [falling, single point]"
CCCNC(=O)N1[C@H]2CC[C@@H]1C(C(=O)OC)=C(c1ccc3ccccc3c1)C2,-9.39,–,"0.206 µM [rising, full curve, poor fit]"
N[C@@H](Cc1c[nH]c2ccccc12)c1nnc(SCc2ccccc2)o1,26.4,–,–
CC(CCc1ccccc1)NC(C)C(O)c1ccc(O)cc1 (stereo not given),-10.3,–,"0.146 µM [falling, full curve, poor fit]"
COc1cc2c(cc1OC)C(C1c3cc4c(cc3CCN1C)OCO4)OC2=O (stereo not given),7.35,–,"20.6 µM [rising, partial curve]"
C=CCn1c(O)c(/C=C2\C=Nc3ccccc32)c(=O)[nH]c1=O,-66.2,"29.1 µM [falling, single point]",–
